Measurements published in PubChem BioAssay AID248 (DTP/NCI, 2004).
The list is a part of this screen's results and no random one: it is rich in T/C values a quarter to a half above the control, in often repeated tests (any T/C) and in doses without a T/C. Other doses and runs of a compound stand elsewhere. T/C is the treated group as % of the vehicle group. Some entries give survivors of the animals treated and no T/C: the source files T/C as zero there, which appears to mark a toxic dose or a test without result, not a measured value. Some survivor counts are full or nearly so, which does not show that the dose was tolerated: survival well below the control is almost never listed, so the zero probably covers shortened survival too. Survivors were counted at the toxicity check, usually on the fifth day, unless a day is given; later deaths do not show. Schedules are NCI's codes, read here as Q, the interval in days (D) or hours (H), X, the number of doses. Some schedules carry Z or #; the key to these is not given. Some entries were tested several times; the results are listed from low to high. Where survival is the endpoint, the PubChem record calls one and a half times the control and up active, and a quarter to a half above the control has no call in these data; cut-offs in other NCI protocols can differ. Some T/C values carry the count of animals alive at the toxicity check (mostly the fifth day); without a count, all were alive then.

System: L1210 leukemia ip in BDF1 mice, survival T/C
Experiment: NCI In Vivo Anticancer Drug Screen. Data for tumor model L1210 Leukemia (intraperitoneal) in B6D2F1 (BDF1) mice
Conditions: T/C endpoint: mean survival time, higher T/C = longer survival
[1] = dose: 400.0 mg/kg/injection, schedule: Q01DX009 (ip), vehicle: saline
[2] = dose: 200.0 mg/kg/injection, schedule: Q01DX009 (ip), vehicle: Klucel (hydroxypropylcellulose) (HPC)
[3] = dose: 400.0 mg/kg/injection, schedule: Q04DX003 (ip), vehicle: Klucel (hydroxypropylcellulose) (HPC)
[4] = dose: 200.0 mg/kg/injection, schedule: Q04DX003 (ip), vehicle: saline with Tween-80
[5] = dose: 400.0 mg/kg/injection, schedule: Q04DX003 (ip), vehicle: saline with Tween-80
[6] = dose: 400.0 mg/kg/injection, schedule: Q01DX001 (ip), vehicle: Klucel (hydroxypropylcellulose) (HPC)
[7] = dose: 300.0 mg/kg/injection, schedule: Q01DX001 (ip), vehicle: saline
[8] = dose: 100.0 mg/kg/injection, schedule: Q04DX003 (ip), vehicle: saline
[9] = dose: 200.0 mg/kg/injection, schedule: Q04DX003 (ip), vehicle: saline
[10] = dose: 400.0 mg/kg/injection, schedule: Q04DX003 (ip), vehicle: saline
[11] = dose: 400.0 mg/kg/injection, schedule: Q01DX001 (ip), vehicle: saline
[12] = dose: 400.0 mg/kg/injection, schedule: Q04DX002 (ip), vehicle: Klucel (hydroxypropylcellulose) (HPC)
[13] = dose: 300.0 mg/kg/injection, schedule: Q01DX001 (ip), vehicle: other

NNC(=O)Nc1cccnc1
survivor count (dose: 150.0 mg/kg/injection, schedule: Q01DX009 (ip), vehicle: saline): 6 of 6 | survivor count (dose: 300.0 mg/kg/injection, schedule: Q01DX009 (ip), vehicle: saline): 6 of 6

CC(C)COC(CN)C(Cl)(Cl)Cl (stereo not drawn)
survivor count (dose: 400.0 mg/kg/injection, schedule: Q01DX001 (ip), vehicle: saline with Tween-80): 1 of 6 | survivor count (dose: 400.0 mg/kg/injection, schedule: Q04DX002 (ip), vehicle: saline with Tween-80): 1 of 6 and 1 of 3

O=c1[nH]cc[nH]1
T/C [1]: 131 % of control | T/C (dose: 600.0 mg/kg/injection, schedule: Q01DX009 (ip), vehicle: saline): 130 % of control

c1ccc2c(c1)C1c3ccccc3C2C2COCC12 (stereo not drawn)
survivor count [2]: 0 of 6 | survivor count [3]: 2 of 6

Clc1ccc2nc(CI)c(CI)nc2c1
survivor count (dose: 25.0 mg/kg/injection, schedule: Q01DX009 (ip), vehicle: acetone): 4 of 6 | survivor count (dose: 50.0 mg/kg/injection, schedule: Q04DX003 (ip), vehicle: acetone): 1 of 6 | survivor count (dose: 100.0 mg/kg/injection, schedule: Q04DX003 (ip), vehicle: saline with Tween-80): 6 of 6 | survivor count [4]: 6 of 6 | survivor count [5]: 0 of 6

O=[As](O)(O)CCCc1ccccc1
survivor count (dose: 25.0 mg/kg/injection, schedule: Q01DX009 (ip), vehicle: Klucel (hydroxypropylcellulose) (HPC)): 1 of 3

N#C/C(=C/Cc1ccc(Cl)cc1)Nc1ccccc1C(N)=O
survivor count (dose: 100.0 mg/kg/injection, schedule: Q01DX001 (ip), vehicle: Klucel (hydroxypropylcellulose) (HPC)): 6 of 6 | survivor count (dose: 200.0 mg/kg/injection, schedule: Q01DX001 (ip), vehicle: Klucel (hydroxypropylcellulose) (HPC)): 6 of 6 | survivor count [6]: 6 of 6

COc1ccccc1N=C(N)N=C(N)N
survivor count [7]: 1 of 6

CC(=O)CCN1CCCCC1
T/C (dose: 40.0 mg/kg/injection, schedule: Q04DX003 (ip), vehicle: saline): 128 % of control | survivor count (dose: 80.0 mg/kg/injection, schedule: Q04DX003 (ip), vehicle: saline): 5 of 6 | survivor count [8]: 6 of 6 | survivor count [9]: 6 of 6 | survivor count [10]: 6 of 6

CN=C1CC2CCC(C2)C1(O)c1ccccc1 (stereo not drawn)
survivor count (dose: 200.0 mg/kg/injection, schedule: Q01DX001 (ip), vehicle: saline): 2 of 6 | survivor count [11]: 0 of 6

CN=C(NO)c1ccccc1C
survivor count (dose: 400.0 mg/kg/injection, schedule: Q01DX001 (ip), vehicle: carboxymethylcellulose (CMC)): 0 of 4

CC[CH2][Sn]([Cl])([Cl])[CH2]CC.Oc1ccccc1C=NCCN=Cc1ccccc1O
T/C (dose: 5.0 mg/kg/injection, schedule: Q01DX009 (ip), vehicle: saline with Tween-80): 141 % of control | survivor count (dose: 10.0 mg/kg/injection, schedule: Q01DX009 (ip), vehicle: saline with Tween-80): 3 of 6 | survivor count (dose: 15.0 mg/kg/injection, schedule: Q01DX009 (ip), vehicle: saline with Tween-80): 2 of 6 | survivor count (dose: 20.0 mg/kg/injection, schedule: Q01DX009 (ip), vehicle: saline with Tween-80): 0 of 5

CC(C)(C)C1CCC(OC=O)CC1 (stereo not drawn)
survivor count [3]: 3 of 6

CCCCCCC(=O)N(C(C)C)C(C)C
survivor count (dose: 400.0 mg/kg/injection, schedule: Q01DX009 (ip), vehicle: carboxymethylcellulose (CMC)): 1 of 3 | survivor count (dose: 400.0 mg/kg/injection, schedule: Q04DX003 (ip), vehicle: carboxymethylcellulose (CMC)): 5 of 6

N#[N+]c1ccc2[nH]c3ccccc3c(=O)c2c1
survivor count (dose: 75.0 mg/kg/injection, schedule: Q01DX001 (ip), vehicle: saline): 1 of 6 | survivor count (dose: 150.0 mg/kg/injection, schedule: Q01DX001 (ip), vehicle: saline): 1 of 6 | survivor count [7]: 1 of 6

Cc1cc(C(O)c2ccccn2)c2ccccc2n1 (stereo not drawn)
survivor count [2]: 3 of 6 | survivor count [6]: 1 of 6

C/C(=N\N=C(N)N)c1cccs1
survivor count (dose: 30.0 mg/kg/injection, schedule: Q01DX Z (oral), vehicle: carboxymethylcellulose (CMC)): 3 of 6 | survivor count (dose: 60.0 mg/kg/injection, schedule: Q01DX Z (oral), vehicle: carboxymethylcellulose (CMC)): 0 of 6

CC/C(=N\N=C(N)N)c1ccc(NC(=S)Nc2ccccc2)cc1
survivor count (dose: 160.0 mg/kg/injection, schedule: Q01DX009 (ip), vehicle: saline): 4 of 6 | survivor count (dose: 320.0 mg/kg/injection, schedule: Q01DX009 (ip), vehicle: saline): 0 of 6

CC1COCC(C)N1CC(=O)NCCCN1CCN(CCCNC(=O)CN2C(C)COCC2C)CC1 (stereo not drawn)
T/C (dose: 100.0 mg/kg/injection, schedule: Q01DX001 (ip), vehicle: saline): 128 % of control | survivor count [11]: 0 of 4

Cc1ccc(CCNc2ncnc(Cl)c2N)cc1
survivor count (dose: 200.0 mg/kg/injection, schedule: Q01DX001 (ip), vehicle: other): 0 of 4 | survivor count (dose: 400.0 mg/kg/injection, schedule: Q01DX001 (ip), vehicle: other): 0 of 4

O=C(CCCCl)CC(O)(C(F)(F)Cl)C(F)(F)Cl
survivor count [5]: 6 of 6

COc1ccc(Cl)cc1NC(=O)Nc1nccs1
survivor count (dose: 400.0 mg/kg/injection, schedule: Q01DX009 (ip), vehicle: Klucel (hydroxypropylcellulose) (HPC)): 1 of 6

O=C(/C(=C\c1ccccc1)CBr)c1ccc(Cl)cc1
survivor count [4]: 1 of 6 | survivor count [5]: 3 of 6

Cc1ncc2c[n+]([O-])ccn12
survivor count [10]: 0 of 6

CN(C)CCOC(c1ccccc1)c1ccccc1
survivor count (dose: 100.0 mg/kg/injection, schedule: Q01DX009 (ip), vehicle: saline): 2 of 6 | survivor count [8]: 4 of 4 | survivor count (dose: 200.0 mg/kg/injection, schedule: Q01DX009 (ip), vehicle: saline): 0 of 6 | survivor count [9]: 2 of 4 | survivor count [1]: 0 of 6 | survivor count [10]: 0 of 4

Cc1cc2oc(=O)cc(N3CCOCC3)c2c(=O)o1
T/C (dose: 50.0 mg/kg/injection, schedule: Q01DX009 (ip), vehicle: saline with Tween-80): 125 % of control [5 of 6 alive]

O=C(Nc1ccccc1)Oc1ccc(C2CCCCC2)cc1
survivor count [12]: 3 of 3

O=C(NCCF)NC1CCCCCCCCCCC1
survivor count (dose: 75.0 mg/kg/injection, schedule: Q01DX001 (ip), vehicle: other): 0 of 6 | survivor count (dose: 150.0 mg/kg/injection, schedule: Q01DX001 (ip), vehicle: other): 1 of 6 | survivor count [13]: 0 of 6

CN1Cc2cc3cc(c2O)C[N+](C)(C)Cc2c(Cl)c(c(Cl)c(c2Cl)C[N+](C)(C)C3)C1
survivor count (dose: 50.0 mg/kg/injection, schedule: Q01DX009 (ip), vehicle: saline): 0 of 6 | survivor count [8]: 0 of 6 | survivor count [9]: 0 of 6 | survivor count [10]: 0 of 6

NC(N)=N/N=C(\C=C\C=C(c1ccc(Cl)cc1)c1ccc(Cl)cc1)c1ccc(Cl)cc1
survivor count [8]: 0 of 6 | survivor count [9]: 0 of 6 | survivor count [10]: 0 of 6

CCC(C#N)C1C=CCCC1 (stereo not drawn)
survivor count [13]: 3 of 6

CC1(c2ccncc2)OCCO1
survivor count [11]: 3 of 6

O=[As]1(c2cccc3ccccc23)c2ccccc2Cc2ccccc21
survivor count (dose: 55.0 mg/kg/injection, schedule: Q01DX Z (ip), vehicle: methylcellulose (MC)): 6 of 6

O=C1C=CC(=Nc2ccc(O)cc2)O1
survivor count (dose: 100.0 mg/kg/injection, schedule: Q01DX009 (ip), vehicle: saline with Tween-80): 0 of 6 | survivor count (dose: 200.0 mg/kg/injection, schedule: Q01DX009 (ip), vehicle: saline with Tween-80): 0 of 6 | survivor count (dose: 400.0 mg/kg/injection, schedule: Q01DX009 (ip), vehicle: saline with Tween-80): 0 of 6

Cc1ccc(C/C(Cc2ccccc2)=N/O)cc1
survivor count [12]: 1 of 3

Cc1cnc2cccc(C)c2c1Cl
survivor count [11]: 1 of 4

CCOC(=O)C(C#N)c1cccc(C)c1 (stereo not drawn)
survivor count [5]: 0 of 6
